Assay results taken from publication PMC10296663.
No constants are given. Whether binding was seen depends on the method and setting. In cells and extracts the contact can be indirect. Some entries that bind do so weakly or less than the wild type.

Amino acid sequences for entries named in this document (tags omitted).
UniProt Q86U44: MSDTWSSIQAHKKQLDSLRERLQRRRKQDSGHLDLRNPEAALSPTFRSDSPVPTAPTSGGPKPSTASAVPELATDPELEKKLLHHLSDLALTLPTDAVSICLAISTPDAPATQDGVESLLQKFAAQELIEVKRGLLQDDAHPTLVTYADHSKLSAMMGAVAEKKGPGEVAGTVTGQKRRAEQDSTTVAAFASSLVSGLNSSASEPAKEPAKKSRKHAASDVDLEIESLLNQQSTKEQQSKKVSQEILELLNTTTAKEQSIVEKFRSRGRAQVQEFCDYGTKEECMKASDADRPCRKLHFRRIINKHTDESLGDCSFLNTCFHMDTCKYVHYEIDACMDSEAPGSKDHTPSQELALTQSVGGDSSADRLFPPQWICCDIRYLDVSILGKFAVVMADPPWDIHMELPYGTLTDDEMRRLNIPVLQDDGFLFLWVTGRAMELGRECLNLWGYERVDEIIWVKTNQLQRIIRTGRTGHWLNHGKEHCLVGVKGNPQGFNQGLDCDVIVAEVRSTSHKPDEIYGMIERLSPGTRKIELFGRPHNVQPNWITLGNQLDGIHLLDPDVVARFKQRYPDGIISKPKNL

Legend:
[1] = molecular target: METTL3 (human (endogenous in H1975)) (UniProt Q86U44); experiment: co-IP; lysate of H1975^NivoSat cells (H1975 saturated with 0.1 μg/mL Nivolumab); IP with anti-METTL3 or control IgG on magnetic beads, overnight at 4 °C; lysis buffer 20 mM Tris-HCl pH 7.4, 150 mM NaCl, 1 mM EDTA, 1% Triton; western blot for METTL3 and KHDRBS3
[2] = molecular target: METTL3 (human (endogenous in H1975)) (UniProt Q86U44); experiment: condition: only H1975 cells without Nivolumab saturation; co-IP; lysate of H1975 cells without Nivolumab saturation; IP with anti-METTL3 or control IgG on magnetic beads, overnight at 4 °C; lysis buffer 20 mM Tris-HCl pH 7.4, 150 mM NaCl, 1 mM EDTA, 1% Triton; western blot for METTL3 and KHDRBS3

binding [1]: binds
binding [2]: no binding
B1: KHDRBS3 (protein, UniProt O75525 1-346)
chain: MEEKYLPELMAEKDSLDPSFTHALRLVNQEIEKFQKGEGKDEEKYIDVVINKNMKLGQKVLIPVKQFPKFNFVGKLLGPRGNSLKRLQEETLTKMSILGKGSMRDKAKEEELRKSGEAKYFHLNDDLHVLIEVFAPPAEAYARMGHALEEIKKFLIPDYNDEIRQAQLQELTYLNGGSENADVPVVRGKPTLRTRGVPAPAITRGRGGVTARPVGVVVPRGTPTPRGVLSTRGPVSRGRGLLTPRARGVPPTGYRPPPPPPTQETYGEYDYDDGYGTAYDEQSYDSYDNSYSTPAQSGADYYDYGHGLSEETYDSYGQEEWTNSRHKAPSARTAKGVYRDQPYGRY
